Experimental data taken from PMC10684865.

Experiments:
[1] = biological target: murine Notch1 ΔE form, HA tagged (murine); experiment: co-IP; 293 T cells transiently co-transfected with vectors for a Notch1 construct and TM2D3; TM2D3 found in the immunoprecipitate of the Notch1 construct; antibodies only 'as indicated' in the figure (Fig. 4b, c, f)
[2] = biological target: murine Notch1 LNR form (lacks all the EGF repeats), HA tagged (murine); experiment: as above

B1: FLAG-tagged TM2D3 variant 1 (transmembrane 2 domain containing 3) (protein, UniProt Q9BRN9 26-247)
chain: ILSGGEQSQALAQSIKDPGPTRTFTVVPRAAESTEIPPYVMKCPSNGLCSRLPADCIDCTTNFSCTYGKPVTFDCAVKPSVTCVDQDFKSQKNFIINMTCRFCWQLPETDYECTNSTSCMTVSCPRQRYPANCTVRDHVHCLGNRTFPKMLYCNWTGGYKWSTALALSITLGGFGADRFYLGQWREGLGKLFSFGGLGIWTLIDVLLIGVGYVGPADGSLYI
binding [1]: no binding | binding [2]: binds

These are yes or no findings as the source states them, for the method shown. In cells and extracts the contact can be indirect. For some assays here: A result given as binding can be weak or reduced; the word gives no strength. Tags and fused reporters may be left off the sequences shown.
